According to patent US20230287113A1:
No constants are given. Whether binding was seen depends on the method and setting. Some entries that bind do so weakly or less than the wild type.

By UniProt entry, the sequences of proteins in these tests, tags left out. Residues count along the entry.
UniProt Q8TDQ0, residues 22-202: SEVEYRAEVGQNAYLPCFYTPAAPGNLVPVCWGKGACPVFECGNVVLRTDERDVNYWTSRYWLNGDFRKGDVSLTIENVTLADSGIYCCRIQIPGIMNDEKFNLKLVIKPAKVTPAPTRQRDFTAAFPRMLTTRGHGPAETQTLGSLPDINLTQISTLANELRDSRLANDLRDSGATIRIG

Target: human TIM-3 (T-cell immunoglobulin mucin receptor 3) (human) (UniProt Q8TDQ0)
Assay: SPR or Octet, human TIM-3 analyte

B1: anti-TIM-3 IgG1 antibody 66-6 (antibody, V domains shown)
VH: EVQLVESGGGLVQPGGSLRLSCAASGFTFSKYAMHWVRQAPGKGLEWVSAISGSGGSTYYADSVKGRFTISRDNSKNTLYLQMNSLRAEDTAVYYCARDLDYRFSGFDVWGQGTLVTVSS
VL: DIQMTQSPSSLSASVGDRVTITCQASQDISNYLNWYQQKPGKAPKLLIYDASNLETGVPSRFSGSGSGTDFTFTISSLQPEDIATYYCQQFAAIPLTFGQGTKVEIKR
For B1, the binding was “binds”.
